Laboratory results published in the supplement of paper PMC7666118.
The other results are listed elsewhere or left out.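 The calls were made as follows: active = dose-dependent thermal stabilisation significant by F-test of dose-response against flat model at 10% FDR; inactive = not significant.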

Sequences of proteins named here, by UniProt entry; tags and fusion partners are left off. A change or cut given only in a name is not applied to a line headed by its entry.
UniProt O43432, whole entry: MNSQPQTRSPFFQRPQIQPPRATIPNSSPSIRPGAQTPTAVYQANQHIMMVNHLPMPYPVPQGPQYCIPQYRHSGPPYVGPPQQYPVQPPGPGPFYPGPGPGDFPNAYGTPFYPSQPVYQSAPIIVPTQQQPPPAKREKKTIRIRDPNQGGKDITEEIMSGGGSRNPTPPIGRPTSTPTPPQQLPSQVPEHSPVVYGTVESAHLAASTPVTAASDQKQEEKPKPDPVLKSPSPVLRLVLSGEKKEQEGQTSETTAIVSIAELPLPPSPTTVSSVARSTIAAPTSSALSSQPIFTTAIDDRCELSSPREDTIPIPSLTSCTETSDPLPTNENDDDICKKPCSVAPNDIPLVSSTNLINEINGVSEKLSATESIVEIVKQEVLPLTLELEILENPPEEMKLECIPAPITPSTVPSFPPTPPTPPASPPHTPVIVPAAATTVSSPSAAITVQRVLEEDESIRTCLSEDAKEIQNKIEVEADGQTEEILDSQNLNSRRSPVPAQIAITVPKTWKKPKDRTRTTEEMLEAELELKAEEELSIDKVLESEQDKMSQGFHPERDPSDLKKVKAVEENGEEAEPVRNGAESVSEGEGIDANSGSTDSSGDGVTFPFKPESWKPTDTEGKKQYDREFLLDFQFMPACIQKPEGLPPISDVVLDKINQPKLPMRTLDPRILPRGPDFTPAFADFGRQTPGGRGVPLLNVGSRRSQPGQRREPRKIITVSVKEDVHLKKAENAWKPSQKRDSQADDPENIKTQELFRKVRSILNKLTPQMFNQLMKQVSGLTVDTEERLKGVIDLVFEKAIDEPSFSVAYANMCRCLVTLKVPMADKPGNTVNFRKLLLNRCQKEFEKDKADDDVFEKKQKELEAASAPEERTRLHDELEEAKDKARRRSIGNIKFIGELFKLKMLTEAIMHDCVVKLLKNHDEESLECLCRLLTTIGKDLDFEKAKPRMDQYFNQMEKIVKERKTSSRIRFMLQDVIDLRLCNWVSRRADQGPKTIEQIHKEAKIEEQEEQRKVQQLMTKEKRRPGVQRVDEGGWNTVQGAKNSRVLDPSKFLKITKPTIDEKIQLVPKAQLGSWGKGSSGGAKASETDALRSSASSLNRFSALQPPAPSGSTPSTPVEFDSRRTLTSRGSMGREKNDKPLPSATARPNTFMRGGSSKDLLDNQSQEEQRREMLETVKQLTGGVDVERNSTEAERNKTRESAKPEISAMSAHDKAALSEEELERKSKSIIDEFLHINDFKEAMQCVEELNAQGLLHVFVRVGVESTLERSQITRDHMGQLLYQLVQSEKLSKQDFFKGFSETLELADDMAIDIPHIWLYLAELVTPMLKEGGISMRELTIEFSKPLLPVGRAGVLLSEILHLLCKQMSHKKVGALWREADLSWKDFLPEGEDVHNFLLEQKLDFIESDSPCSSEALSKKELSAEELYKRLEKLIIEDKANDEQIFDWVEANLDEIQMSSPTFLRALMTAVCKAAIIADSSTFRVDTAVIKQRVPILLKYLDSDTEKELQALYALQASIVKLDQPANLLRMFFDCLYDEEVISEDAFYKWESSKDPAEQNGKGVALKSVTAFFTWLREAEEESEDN
UniProt Q9NPA8: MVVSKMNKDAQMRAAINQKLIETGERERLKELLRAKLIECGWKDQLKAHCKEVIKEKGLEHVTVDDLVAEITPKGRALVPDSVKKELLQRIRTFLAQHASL
UniProt Q96RU3: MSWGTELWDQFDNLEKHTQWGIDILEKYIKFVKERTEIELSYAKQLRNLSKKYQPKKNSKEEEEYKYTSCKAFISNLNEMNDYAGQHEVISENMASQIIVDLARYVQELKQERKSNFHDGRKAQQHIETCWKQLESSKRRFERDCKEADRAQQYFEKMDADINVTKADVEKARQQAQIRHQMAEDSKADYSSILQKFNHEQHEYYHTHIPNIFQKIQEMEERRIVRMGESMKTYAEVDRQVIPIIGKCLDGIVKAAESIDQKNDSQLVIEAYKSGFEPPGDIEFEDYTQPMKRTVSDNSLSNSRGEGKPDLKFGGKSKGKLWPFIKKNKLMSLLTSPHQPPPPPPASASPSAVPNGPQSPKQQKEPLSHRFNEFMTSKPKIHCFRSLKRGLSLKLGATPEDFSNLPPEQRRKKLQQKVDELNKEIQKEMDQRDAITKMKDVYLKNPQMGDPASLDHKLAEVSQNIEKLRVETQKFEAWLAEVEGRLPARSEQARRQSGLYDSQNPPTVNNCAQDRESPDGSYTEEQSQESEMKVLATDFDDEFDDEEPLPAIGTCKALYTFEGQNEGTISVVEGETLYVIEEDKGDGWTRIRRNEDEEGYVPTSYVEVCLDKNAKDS
UniProt O94868: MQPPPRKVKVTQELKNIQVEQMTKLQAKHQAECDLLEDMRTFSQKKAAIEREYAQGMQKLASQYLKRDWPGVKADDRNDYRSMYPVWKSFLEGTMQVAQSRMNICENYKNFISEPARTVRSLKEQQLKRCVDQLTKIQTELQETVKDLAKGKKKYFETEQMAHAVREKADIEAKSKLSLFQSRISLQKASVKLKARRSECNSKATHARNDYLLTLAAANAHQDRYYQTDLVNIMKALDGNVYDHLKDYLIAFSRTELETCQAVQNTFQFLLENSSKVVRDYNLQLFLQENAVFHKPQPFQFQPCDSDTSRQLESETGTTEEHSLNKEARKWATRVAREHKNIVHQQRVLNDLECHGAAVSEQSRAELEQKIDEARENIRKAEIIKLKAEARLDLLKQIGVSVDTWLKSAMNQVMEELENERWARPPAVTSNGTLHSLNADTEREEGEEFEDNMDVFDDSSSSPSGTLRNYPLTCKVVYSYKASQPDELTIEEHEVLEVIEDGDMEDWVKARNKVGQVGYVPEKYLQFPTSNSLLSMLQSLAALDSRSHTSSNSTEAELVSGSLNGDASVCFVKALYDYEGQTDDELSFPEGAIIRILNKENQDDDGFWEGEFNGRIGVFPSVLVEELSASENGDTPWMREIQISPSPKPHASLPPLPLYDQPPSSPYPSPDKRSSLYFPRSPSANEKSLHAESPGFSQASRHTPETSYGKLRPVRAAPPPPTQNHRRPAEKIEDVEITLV
UniProt Q6P179: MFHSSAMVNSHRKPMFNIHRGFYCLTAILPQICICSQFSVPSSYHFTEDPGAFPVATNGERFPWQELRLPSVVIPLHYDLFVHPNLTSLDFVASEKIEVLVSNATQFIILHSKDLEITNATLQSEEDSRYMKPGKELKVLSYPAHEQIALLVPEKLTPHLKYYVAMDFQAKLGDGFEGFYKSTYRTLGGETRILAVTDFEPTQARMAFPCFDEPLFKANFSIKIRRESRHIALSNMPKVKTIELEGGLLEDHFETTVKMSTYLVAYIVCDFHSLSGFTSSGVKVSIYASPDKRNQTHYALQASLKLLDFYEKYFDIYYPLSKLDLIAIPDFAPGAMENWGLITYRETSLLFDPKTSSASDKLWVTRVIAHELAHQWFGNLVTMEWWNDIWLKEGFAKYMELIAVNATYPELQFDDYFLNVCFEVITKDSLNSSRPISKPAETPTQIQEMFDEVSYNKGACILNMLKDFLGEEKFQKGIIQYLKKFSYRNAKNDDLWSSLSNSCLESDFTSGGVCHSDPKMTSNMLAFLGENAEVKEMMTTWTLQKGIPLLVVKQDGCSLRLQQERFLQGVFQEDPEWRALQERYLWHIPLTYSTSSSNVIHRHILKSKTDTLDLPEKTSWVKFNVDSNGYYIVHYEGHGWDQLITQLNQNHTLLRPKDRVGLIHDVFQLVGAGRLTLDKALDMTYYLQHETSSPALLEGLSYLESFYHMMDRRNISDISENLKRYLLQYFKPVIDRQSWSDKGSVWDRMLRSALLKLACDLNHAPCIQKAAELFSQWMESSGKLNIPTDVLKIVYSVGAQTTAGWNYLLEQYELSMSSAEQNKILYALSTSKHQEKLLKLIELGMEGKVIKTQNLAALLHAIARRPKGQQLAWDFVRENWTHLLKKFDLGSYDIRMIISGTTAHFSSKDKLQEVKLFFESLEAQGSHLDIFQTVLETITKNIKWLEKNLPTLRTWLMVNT
UniProt Q7L5Y1: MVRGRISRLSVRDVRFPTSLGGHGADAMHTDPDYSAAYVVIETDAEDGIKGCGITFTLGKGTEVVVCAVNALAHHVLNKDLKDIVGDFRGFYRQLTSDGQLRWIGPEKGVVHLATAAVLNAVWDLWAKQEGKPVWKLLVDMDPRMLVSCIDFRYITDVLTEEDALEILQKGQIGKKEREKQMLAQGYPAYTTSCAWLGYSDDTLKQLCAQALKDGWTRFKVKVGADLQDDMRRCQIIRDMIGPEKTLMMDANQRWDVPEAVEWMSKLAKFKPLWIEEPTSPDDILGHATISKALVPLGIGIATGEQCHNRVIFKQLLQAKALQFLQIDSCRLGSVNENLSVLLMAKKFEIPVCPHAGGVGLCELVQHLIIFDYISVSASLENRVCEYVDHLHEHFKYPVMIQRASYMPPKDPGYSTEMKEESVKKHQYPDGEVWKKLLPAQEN
UniProt O75821, whole entry: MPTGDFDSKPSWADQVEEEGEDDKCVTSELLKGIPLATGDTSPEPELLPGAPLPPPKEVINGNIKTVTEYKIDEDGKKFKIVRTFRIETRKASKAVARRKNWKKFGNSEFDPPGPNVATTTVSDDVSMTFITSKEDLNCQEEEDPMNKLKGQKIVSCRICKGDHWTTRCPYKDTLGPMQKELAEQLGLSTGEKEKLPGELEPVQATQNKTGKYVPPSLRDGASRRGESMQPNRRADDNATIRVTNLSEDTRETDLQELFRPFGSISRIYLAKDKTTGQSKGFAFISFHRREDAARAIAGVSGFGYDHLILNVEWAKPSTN
UniProt Q8NFG4: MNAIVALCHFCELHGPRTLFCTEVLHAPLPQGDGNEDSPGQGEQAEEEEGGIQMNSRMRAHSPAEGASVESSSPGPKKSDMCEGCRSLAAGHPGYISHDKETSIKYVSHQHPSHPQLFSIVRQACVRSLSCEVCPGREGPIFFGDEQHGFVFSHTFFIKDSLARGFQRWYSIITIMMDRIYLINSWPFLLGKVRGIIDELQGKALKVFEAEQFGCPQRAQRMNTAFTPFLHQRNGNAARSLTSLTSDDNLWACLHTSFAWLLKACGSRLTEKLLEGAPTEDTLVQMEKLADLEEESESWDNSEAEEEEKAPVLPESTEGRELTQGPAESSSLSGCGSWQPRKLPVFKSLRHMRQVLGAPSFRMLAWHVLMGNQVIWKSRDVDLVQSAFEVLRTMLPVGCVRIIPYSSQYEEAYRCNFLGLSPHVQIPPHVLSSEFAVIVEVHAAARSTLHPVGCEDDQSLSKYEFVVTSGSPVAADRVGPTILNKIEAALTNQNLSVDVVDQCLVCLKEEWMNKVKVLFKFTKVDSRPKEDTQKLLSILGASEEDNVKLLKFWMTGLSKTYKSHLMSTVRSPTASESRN
UniProt P41212: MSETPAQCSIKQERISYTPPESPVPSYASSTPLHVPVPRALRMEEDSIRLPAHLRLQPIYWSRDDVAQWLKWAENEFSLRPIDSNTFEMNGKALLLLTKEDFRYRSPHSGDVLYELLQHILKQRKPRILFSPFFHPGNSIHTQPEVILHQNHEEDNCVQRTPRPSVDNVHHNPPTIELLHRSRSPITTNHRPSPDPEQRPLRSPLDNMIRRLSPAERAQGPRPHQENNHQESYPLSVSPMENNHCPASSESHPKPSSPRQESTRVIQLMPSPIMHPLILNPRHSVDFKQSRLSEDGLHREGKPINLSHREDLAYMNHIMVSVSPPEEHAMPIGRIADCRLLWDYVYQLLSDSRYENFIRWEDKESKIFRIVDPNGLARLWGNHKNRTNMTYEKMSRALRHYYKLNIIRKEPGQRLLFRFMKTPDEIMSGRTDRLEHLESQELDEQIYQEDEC
UniProt Q8WUF8: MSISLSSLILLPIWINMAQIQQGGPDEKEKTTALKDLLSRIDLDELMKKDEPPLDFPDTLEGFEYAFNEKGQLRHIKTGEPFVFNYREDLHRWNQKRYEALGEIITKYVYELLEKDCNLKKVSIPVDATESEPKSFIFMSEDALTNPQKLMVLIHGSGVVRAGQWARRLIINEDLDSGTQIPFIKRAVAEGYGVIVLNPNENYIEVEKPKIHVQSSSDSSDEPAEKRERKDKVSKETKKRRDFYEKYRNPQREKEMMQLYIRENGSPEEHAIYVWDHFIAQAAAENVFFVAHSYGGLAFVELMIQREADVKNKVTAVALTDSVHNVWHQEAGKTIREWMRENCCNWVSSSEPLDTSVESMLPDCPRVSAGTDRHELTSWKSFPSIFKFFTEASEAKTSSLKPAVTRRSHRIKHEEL
UniProt Q8TCE6, whole entry: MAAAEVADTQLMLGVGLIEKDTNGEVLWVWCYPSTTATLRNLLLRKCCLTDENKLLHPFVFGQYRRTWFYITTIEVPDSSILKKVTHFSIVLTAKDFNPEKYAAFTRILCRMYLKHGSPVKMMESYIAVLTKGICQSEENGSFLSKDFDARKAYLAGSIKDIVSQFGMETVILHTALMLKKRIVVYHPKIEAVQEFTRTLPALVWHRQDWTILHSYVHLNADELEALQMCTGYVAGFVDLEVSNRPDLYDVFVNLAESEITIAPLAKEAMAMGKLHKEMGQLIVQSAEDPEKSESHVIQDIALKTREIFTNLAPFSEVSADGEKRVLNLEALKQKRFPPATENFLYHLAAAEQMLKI

compound: Nc1nc2c(ncn2[C@@H]2O[C@H](COP(=O)(O)OP(=O)(O)OP(=O)(O)O)[C@@H](O)[C@H]2O)c(=O)[nH]1; assay: dose-dependent thermal stabilisation call (2D-TPP, DLPTP, 10% FDR) (binary (1 = stabilised)); higher = stabilised by the compound; details: system: Jurkat gel-filtered lysate; concentration range 1-500 µM

Row | Target | dose-dependent thermal stabilisation call
1 | EIF4G3 (UniProt O43432) | inactive: 0
2 | EIF4EBP2 (UniProt Q13542) | inactive: 0
3 | EVL (UniProt Q9UI08) | inactive: 0
4 | EIF5A (UniProt P63241) | inactive: 0
5 | FYB (UniProt O15117) | inactive: 0
6 | ERCC4 (UniProt Q92889) | active: 1
7 | EZH2 (UniProt Q15910) | inactive: 0
8 | EML2 (UniProt O95834) | inactive: 0
9 | EXOC6B (UniProt Q9Y2D4) | inactive: 0
10 | FIGNL1 (UniProt Q6PIW4) | inactive: 0
11 | FAIM (UniProt Q9NVQ4) | inactive: 0
12 | FAM118B (UniProt Q9BPY3) | active: 1
13 | FOXJ3 (UniProt Q9UPW0) | inactive: 0
14 | FAM120A (UniProt Q9NZB2) | active: 1
15 | ENY2 (UniProt Q9NPA8) | inactive: 0
16 | FNBP1 (UniProt Q96RU3) | inactive: 0
17 | ELAC2 (UniProt Q9BQ52) | inactive: 0
18 | FCHSD2 (UniProt O94868) | inactive: 0

Quoted from above: nos. 1 to 2
Row | Target | dose-dependent thermal stabilisation call
1 | EIF4G3 (UniProt O43432) | inactive: 0
2 | EIF4EBP2 (UniProt Q13542) | inactive: 0

Following part

Row | Target | dose-dependent thermal stabilisation call
19 | EXOSC6 (UniProt Q5RKV6) | inactive: 0
20 | EGLN1 (UniProt Q9GZT9) | inactive: 0
21 | EPB41 (UniProt P11171) | inactive: 0
22 | FBXW2 (UniProt Q9UKT8) | inactive: 0
23 | FAM204A (UniProt Q9H8W3) | inactive: 0
24 | ERAP2 (UniProt Q6P179) | inactive: 0
25 | FOXO3 (UniProt O43524) | inactive: 0
26 | ENO1 (UniProt P06733) | inactive: 0
27 | EML4 (UniProt Q9HC35) | inactive: 0
28 | ENOSF1 (UniProt Q7L5Y1) | inactive: 0
29 | EIF4E2 (UniProt O60573) | inactive: 0
30 | EIF3G (UniProt O75821) | inactive: 0
31 | ETFB (UniProt P38117) | inactive: 0
32 | ELMO1 (UniProt Q92556) | inactive: 0
33 | FLCN (UniProt Q8NFG4) | inactive: 0
34 | ETV6 (UniProt P41212) | inactive: 0
35 | FAM172A (UniProt Q8WUF8) | inactive: 0
36 | FAM45A (UniProt Q8TCE6) | inactive: 0
